Test results from paper PMC10549227.
No constants are given. Whether binding was seen depends on the method and setting. Some entries that bind do so weakly or less than the wild type. Tags and fused reporters may be left off the sequences shown.

The chains behind the UniProt entries cited, without tags or fusion partners. Where a name states a change or a piece, a line headed by the entry shows the natural chain unless it says otherwise. A line that says so, or that is headed by a name, gives the form on record, which may keep a tag or linker.
human G-CSF (granulocyte colony-stimulating factor) (P09919-2, form named): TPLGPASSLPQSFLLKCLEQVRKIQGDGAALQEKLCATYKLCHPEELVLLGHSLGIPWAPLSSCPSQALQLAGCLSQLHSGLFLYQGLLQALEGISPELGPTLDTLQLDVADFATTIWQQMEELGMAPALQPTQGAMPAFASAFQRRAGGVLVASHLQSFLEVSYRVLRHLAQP

Target: T1, Fc-chimera G-CSF receptor (UniProt Q99062)
T1 sequence: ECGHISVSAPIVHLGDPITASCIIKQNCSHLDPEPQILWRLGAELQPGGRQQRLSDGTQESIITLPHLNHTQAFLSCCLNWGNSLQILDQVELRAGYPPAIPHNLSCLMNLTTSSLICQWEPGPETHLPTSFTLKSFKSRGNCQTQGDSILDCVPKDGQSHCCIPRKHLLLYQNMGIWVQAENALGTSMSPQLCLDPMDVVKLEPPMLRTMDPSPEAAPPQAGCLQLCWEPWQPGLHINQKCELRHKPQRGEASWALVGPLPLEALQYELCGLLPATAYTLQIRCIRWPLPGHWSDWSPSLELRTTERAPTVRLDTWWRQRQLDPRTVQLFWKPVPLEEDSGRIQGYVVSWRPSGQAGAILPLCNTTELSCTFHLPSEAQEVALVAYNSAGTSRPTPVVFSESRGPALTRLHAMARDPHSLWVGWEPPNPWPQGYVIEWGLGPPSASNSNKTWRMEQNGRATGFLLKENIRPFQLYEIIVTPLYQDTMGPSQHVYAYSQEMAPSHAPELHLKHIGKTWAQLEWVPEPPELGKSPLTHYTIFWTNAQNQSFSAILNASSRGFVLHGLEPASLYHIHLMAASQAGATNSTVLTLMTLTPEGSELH
Experiment: SPR; Biacore T200; Protein A amine-coupled on CM5 chip, Fc-chimera G-CSF receptor captured via Protein A; G-CSF variants injected in single-cycle manner at increasing concentrations, 30 uL/min; running buffer 10 mM HEPES, 0.05% Tween20, 150 mM NaCl, pH 7.4; both purified

human G-CSF (granulocyte colony-stimulating factor) (from UniProt P09919-2 31-204) (ligand)
binding: binds
